Reference: the supplement of paper PMC12819154, “High-throughput peptide-centric local stability assay extends protein–ligand identification to membrane proteins, tissues and bacteria” (Nature Structural & Molecular Biology, 2025)
This is one part of the list. Most entries show no effect beyond the scatter of the controls.

Protein sequences, listed by entry. Tags and fused reporters are not part of them. Lines headed by an entry give the natural chain unless they say otherwise; changes in a name come on top.
UniProt P52306: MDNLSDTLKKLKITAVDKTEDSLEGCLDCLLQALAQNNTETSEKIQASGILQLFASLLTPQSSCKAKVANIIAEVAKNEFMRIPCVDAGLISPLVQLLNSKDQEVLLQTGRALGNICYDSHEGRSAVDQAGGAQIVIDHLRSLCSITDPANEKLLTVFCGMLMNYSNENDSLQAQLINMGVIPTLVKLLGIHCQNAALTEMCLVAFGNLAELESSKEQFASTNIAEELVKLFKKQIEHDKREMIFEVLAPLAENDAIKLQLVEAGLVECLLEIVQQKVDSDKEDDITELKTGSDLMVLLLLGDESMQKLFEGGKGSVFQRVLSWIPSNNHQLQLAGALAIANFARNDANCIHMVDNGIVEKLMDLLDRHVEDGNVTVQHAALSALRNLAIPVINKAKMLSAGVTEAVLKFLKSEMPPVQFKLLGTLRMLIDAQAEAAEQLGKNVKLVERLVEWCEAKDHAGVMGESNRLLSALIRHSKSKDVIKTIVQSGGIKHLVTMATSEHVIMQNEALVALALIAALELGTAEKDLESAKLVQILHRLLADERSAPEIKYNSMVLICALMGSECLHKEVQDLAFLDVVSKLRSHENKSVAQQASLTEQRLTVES
UniProt P53677: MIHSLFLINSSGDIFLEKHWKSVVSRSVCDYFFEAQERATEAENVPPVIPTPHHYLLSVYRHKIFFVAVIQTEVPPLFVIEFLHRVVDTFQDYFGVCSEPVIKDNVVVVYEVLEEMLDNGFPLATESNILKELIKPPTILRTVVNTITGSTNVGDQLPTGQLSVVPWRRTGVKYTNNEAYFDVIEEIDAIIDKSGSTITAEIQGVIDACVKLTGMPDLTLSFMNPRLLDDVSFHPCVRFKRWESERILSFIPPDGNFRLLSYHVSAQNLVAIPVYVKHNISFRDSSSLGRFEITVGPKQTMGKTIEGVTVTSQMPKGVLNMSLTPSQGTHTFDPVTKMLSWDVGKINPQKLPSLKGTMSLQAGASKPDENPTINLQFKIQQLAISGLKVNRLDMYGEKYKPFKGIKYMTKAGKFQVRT
UniProt P51572: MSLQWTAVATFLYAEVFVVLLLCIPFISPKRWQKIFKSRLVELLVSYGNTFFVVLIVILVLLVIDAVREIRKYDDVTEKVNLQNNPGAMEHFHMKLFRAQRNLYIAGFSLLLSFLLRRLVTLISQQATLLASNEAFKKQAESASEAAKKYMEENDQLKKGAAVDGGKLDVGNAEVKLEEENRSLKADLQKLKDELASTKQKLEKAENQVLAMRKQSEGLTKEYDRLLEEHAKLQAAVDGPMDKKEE
UniProt P48552: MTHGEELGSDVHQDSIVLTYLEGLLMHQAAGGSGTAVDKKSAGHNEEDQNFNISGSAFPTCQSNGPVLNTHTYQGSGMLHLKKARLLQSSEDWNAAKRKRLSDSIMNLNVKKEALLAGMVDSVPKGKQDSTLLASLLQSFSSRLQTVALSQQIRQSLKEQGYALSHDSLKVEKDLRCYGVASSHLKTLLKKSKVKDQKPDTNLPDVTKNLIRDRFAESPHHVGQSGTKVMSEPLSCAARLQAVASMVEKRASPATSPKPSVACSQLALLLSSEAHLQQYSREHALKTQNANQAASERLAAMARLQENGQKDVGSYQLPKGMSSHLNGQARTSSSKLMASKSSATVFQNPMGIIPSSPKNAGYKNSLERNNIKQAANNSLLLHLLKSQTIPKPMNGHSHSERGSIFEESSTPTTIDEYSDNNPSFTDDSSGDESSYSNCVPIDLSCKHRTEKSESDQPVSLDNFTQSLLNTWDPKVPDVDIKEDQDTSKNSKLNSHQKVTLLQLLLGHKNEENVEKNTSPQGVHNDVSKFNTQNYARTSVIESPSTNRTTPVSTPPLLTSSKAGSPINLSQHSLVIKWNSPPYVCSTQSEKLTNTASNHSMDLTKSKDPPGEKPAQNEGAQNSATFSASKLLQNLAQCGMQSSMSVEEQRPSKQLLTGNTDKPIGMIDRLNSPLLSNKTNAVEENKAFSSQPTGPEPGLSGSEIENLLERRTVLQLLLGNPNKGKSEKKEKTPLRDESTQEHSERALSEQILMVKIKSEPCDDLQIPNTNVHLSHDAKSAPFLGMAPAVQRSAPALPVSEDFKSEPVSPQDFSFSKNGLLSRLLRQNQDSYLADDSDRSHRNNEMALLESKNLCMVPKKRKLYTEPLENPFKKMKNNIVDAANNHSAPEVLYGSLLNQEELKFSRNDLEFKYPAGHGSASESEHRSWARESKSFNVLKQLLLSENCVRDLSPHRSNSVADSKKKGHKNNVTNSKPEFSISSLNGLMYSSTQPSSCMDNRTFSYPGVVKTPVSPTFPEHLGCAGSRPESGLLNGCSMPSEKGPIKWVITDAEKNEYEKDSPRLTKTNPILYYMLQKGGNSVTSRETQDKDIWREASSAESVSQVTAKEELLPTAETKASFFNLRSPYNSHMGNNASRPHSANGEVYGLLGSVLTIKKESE
UniProt P46736, whole entry: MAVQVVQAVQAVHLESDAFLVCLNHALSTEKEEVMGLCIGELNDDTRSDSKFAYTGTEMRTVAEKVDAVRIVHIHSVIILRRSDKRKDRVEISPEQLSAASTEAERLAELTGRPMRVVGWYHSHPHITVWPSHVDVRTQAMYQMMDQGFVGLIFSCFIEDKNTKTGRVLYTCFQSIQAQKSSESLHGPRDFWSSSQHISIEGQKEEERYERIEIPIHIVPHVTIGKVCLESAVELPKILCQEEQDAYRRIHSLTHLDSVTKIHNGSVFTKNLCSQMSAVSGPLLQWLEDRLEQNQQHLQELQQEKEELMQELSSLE
UniProt P54274: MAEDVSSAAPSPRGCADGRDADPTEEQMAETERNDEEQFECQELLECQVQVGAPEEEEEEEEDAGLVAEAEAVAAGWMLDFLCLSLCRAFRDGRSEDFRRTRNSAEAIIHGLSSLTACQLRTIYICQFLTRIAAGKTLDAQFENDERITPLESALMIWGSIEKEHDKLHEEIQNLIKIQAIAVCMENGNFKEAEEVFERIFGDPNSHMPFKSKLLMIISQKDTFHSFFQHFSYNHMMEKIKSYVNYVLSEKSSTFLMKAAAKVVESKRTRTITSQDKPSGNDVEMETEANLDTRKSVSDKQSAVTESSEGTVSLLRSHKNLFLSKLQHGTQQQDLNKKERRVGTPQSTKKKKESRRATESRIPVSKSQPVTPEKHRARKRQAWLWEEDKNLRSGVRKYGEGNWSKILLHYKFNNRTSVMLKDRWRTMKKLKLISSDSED
UniProt P49815: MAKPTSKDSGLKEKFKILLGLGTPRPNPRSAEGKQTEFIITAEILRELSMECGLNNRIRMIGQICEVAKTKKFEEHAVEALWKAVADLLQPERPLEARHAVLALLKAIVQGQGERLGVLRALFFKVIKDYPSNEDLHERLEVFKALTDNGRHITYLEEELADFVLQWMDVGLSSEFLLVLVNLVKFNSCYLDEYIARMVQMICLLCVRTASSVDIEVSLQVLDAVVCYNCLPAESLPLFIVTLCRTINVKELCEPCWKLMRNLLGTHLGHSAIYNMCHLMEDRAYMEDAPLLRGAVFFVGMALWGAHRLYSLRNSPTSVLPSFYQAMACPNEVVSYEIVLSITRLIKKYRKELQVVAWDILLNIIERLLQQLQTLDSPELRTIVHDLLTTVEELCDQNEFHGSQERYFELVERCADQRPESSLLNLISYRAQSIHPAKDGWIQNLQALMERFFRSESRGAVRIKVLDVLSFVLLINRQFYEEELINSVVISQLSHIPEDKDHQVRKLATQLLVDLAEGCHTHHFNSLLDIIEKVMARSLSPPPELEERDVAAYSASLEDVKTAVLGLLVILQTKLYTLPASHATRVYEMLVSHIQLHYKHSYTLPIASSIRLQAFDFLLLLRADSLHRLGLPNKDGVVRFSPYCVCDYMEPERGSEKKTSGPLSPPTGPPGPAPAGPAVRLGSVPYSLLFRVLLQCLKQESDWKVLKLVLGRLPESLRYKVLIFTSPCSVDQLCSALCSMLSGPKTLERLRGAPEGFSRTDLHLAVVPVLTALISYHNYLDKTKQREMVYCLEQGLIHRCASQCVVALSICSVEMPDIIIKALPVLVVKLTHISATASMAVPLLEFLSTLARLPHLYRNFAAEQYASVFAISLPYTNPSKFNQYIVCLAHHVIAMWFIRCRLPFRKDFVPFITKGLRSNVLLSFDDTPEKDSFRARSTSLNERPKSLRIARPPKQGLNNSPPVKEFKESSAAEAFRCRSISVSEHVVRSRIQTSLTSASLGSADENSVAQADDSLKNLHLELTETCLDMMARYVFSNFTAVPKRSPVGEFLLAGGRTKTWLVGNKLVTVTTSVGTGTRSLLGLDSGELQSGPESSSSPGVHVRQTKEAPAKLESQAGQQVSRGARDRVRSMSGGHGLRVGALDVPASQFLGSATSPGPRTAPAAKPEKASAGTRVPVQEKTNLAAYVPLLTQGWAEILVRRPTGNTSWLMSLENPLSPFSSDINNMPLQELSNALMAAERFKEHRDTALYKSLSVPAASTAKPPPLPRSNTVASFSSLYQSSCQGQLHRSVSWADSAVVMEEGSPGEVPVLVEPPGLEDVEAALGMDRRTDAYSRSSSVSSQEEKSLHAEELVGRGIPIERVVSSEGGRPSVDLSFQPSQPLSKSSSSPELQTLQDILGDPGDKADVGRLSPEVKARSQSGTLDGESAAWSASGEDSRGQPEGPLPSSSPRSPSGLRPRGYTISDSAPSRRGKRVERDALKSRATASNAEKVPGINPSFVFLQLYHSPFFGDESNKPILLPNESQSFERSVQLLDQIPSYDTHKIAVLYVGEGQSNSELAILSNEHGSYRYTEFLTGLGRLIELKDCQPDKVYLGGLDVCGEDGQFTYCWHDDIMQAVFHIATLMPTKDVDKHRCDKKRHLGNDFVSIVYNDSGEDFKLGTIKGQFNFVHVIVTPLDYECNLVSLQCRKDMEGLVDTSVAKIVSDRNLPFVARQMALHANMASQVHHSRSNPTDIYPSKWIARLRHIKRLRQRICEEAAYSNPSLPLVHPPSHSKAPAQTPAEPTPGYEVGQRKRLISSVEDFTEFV
UniProt P51948: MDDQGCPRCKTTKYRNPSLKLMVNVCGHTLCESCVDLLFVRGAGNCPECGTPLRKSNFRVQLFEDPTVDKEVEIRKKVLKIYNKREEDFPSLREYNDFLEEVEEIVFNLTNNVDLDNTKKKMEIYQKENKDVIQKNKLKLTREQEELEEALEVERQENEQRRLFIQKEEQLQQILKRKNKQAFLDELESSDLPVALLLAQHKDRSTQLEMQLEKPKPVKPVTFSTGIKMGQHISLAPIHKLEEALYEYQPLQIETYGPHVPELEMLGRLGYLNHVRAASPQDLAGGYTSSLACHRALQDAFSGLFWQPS
UniProt P50570: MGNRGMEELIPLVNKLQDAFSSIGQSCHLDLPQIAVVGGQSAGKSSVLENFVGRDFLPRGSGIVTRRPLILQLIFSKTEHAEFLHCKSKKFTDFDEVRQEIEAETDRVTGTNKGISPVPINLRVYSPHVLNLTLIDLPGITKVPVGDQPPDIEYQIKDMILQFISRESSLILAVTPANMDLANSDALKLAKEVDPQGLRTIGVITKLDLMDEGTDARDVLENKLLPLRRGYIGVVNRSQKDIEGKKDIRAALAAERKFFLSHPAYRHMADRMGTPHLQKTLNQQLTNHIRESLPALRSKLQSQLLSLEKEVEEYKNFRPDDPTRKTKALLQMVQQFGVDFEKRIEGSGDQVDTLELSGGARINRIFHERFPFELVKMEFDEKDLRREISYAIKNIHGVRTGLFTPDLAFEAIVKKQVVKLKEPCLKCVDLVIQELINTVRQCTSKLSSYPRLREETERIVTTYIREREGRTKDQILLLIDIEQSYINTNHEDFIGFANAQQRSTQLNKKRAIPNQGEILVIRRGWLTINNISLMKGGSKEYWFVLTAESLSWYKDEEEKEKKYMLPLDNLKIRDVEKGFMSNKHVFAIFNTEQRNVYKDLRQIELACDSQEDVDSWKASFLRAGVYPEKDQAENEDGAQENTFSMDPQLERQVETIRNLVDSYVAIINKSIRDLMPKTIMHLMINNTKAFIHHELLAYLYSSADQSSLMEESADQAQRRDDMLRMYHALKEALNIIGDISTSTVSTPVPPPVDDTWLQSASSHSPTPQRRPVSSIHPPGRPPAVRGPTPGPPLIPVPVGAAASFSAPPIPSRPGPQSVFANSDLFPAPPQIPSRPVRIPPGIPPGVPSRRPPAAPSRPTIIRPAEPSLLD
UniProt P51553: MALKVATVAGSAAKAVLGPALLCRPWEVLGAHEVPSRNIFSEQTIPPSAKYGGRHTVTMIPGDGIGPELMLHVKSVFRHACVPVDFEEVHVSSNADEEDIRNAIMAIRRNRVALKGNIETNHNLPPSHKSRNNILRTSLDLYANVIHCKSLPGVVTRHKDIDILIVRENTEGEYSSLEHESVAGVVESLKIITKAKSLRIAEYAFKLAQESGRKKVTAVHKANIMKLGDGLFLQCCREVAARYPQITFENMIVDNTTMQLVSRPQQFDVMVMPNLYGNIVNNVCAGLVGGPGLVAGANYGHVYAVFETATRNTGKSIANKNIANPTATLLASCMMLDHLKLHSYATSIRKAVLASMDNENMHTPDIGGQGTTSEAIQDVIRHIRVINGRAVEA

Compound: Cc1nc(Nc2ncc(C(=O)Nc3c(C)cccc3Cl)s2)cc(N2CCN(CCO)CC2)n1 [dasatinib]
Assay: log2 fold change of tryptic peptide abundance, ligand vs vehicle (limited proteolysis) (log2 ratio); higher = more trypsin-susceptible (destabilized)
Conditions: ligand concentration: 5 uM; sample: K562 cleared lysate

Target | log2 fold change
LIG3 (peptide sequence: VLHNAQEVEKEPGQR, peptide start residue: 454) (UniProt P49916) | -0.599
RECQL (peptide sequence: IIAHFLIQQYLK, peptide start residue: 545) (UniProt P46063) | -0.282
RGS3 (peptide sequence: NGGSMHHLSLFFTGHR, peptide start residue: 989) (UniProt P49796) | 0.47
TMED10 (peptide sequence: ITDSAGHILYSKEDATK, peptide start residue: 76) (UniProt P49755) | 0.635
RAP1GDS1 (peptide sequence: LMDLLDR, peptide start residue: 362) (UniProt P52306) | -0.262
AP3M2 (peptide sequence: ELIKPPTILR, peptide start residue: 132) (UniProt P53677) | -0.137
BCAP31 (peptide sequence: LQAAVDGPMDKKEE, peptide start residue: 233) (UniProt P51572) | -0.297
HLCS (peptide sequence: RGSASGSEPAGDSDR, peptide start residue: 77) (UniProt P50747) | 0.0963
NRIP1 (peptide sequence: VMSEPLSCAAR, peptide start residue: 229) (UniProt P48552) | -0.443
NT5C2 (peptide sequence: HLDSSSNERPDISSIQR, peptide start residue: 405) (UniProt P49902) | 0.229
BRCC3 (peptide sequence: ILCQEEQDAYRR, peptide start residue: 238) (UniProt P46736) | 0.198
PSMB2 (peptide sequence: VAASNIVQMKDDHDK, peptide start residue: 20) (UniProt P49721) | -0.0942
YLPM1 (peptide sequence: DYVPDRMDWER, peptide start residue: 1388) (UniProt P49750) | -0.219
ZFP36L2 (peptide sequence: DALHLGFPR, peptide start residue: 240) (UniProt P47974) | -0.109
RPL28 (peptide sequence: SQKPVMVKR, peptide start residue: 120) (UniProt P46779) | -0.0967
TERF1 (peptide sequence: QAWLWEEDKNLR, peptide start residue: 381) (UniProt P54274) | -0.161
TSC2 (peptide sequence: KFEEHAVEALWK, peptide start residue: 72) (UniProt P49815) | 0.747
UniProt P52434 (peptide sequence: LHCESESFK, peptide start residue: 28) | 0.229
PMS2 (peptide sequence: QDQSPSLR, peptide start residue: 400) (UniProt P54278) | -0.095
CLK3 (peptide sequence: EAARLEINVLKK, peptide start residue: 344) (UniProt P49761) | 1
CDKN1B (peptide sequence: QAEHPKPSACR, peptide start residue: 20) (UniProt P46527) | -0.345
MVD (peptide sequence: IIHLVHR, peptide start residue: 284) (UniProt P53602) | 0.385
NDUFV1 (peptide sequence: GGAGFPTGLK, peptide start residue: 89) (UniProt P49821) | 0.309
MNAT1 (peptide sequence: EEQLQQILK, peptide start residue: 168) (UniProt P51948) | 0.359
UniProt P52746 (peptide sequence: QAVLSHENCK, peptide start residue: 557) | 0.577
DNM2 (peptide sequence: GMEELIPLVNK, peptide start residue: 5) (UniProt P50570) | -0.0924
RPIA (peptide sequence: AGGAASGGGGNSWDLPGSHVR, peptide start residue: 22) (UniProt P49247) | 0.0224
IDH3G (peptide sequence: LHSYATSIR, peptide start residue: 341) (UniProt P51553) | 0.101

A different layout for some results above:
Target	log2 fold change
RPIA (peptide sequence: AGGAASGGGGNSWDLPGSHVR, peptide start residue: 22) (UniProt P49247)	0.0224
IDH3G (peptide sequence: LHSYATSIR, peptide start residue: 341) (UniProt P51553)	0.101
